This is one part of the list.
Columns and labels:
Experiment in all cases: log2 fold change, soluble protein after heating vs DMSO (PISA); higher = thermal stabilisation; K562 lysate, 10 uM; active = over 0.2 and 3.5 SD of the protein, either way, in both replicates (recomputed)
ibrutinib = compound: C=CC(=O)N1CCC[C@@H](n2nc(-c3ccc(Oc4ccccc4)cc3)c3c(N)ncnc32)C1 [ibrutinib]
Summary of the method: (§1)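 Quantification was by TMTpro 16plex LC-MS/MS with equalised channel sums, applied to the supernatant after 21,000xg for 90 min. Samples were crude K562 extract at 1 mg/mL protein in PBS pH 7.4 with 1 mM MgCl2, treated with 10 μM compound for 30 min, heated for 3 min across 48°C-58°C, pooled and brought to 0.5% NP-40 at 4°C. Values are log-two fold changes in thermal stability relative to solvent controls, from duplicates.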

By UniProt entry, the sequences of proteins in these tests, tags left out. Where a name states a change or a piece, a line headed by the entry shows the natural chain unless it says otherwise.
UniProt Q96K37: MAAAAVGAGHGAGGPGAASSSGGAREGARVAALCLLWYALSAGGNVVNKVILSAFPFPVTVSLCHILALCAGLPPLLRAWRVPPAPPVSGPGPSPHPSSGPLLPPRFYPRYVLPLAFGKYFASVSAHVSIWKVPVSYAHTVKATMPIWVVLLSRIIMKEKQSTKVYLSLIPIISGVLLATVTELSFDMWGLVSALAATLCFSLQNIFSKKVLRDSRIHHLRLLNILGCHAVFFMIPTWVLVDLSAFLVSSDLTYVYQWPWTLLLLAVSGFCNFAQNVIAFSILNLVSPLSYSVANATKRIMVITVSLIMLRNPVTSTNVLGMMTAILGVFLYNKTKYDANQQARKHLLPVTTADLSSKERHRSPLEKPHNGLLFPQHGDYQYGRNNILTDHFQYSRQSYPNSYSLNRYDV
UniProt Q92581: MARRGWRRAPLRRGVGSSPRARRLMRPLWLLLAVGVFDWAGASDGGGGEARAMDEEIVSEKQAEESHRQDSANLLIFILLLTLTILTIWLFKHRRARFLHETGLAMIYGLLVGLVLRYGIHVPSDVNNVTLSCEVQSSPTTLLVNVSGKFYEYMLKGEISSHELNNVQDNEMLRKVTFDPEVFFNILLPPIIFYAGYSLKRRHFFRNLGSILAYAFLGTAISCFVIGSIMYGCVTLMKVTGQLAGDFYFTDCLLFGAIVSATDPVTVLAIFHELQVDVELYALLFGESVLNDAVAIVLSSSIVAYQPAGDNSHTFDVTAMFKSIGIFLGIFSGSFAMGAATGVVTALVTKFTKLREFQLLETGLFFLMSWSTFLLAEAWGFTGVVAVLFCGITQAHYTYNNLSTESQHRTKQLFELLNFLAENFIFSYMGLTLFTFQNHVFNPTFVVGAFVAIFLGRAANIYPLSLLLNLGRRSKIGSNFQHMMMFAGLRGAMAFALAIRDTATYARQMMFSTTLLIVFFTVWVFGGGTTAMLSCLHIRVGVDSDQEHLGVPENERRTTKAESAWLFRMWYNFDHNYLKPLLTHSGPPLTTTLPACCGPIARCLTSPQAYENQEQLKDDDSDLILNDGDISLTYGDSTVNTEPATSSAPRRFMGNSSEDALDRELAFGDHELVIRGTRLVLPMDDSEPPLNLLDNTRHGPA
UniProt P11166: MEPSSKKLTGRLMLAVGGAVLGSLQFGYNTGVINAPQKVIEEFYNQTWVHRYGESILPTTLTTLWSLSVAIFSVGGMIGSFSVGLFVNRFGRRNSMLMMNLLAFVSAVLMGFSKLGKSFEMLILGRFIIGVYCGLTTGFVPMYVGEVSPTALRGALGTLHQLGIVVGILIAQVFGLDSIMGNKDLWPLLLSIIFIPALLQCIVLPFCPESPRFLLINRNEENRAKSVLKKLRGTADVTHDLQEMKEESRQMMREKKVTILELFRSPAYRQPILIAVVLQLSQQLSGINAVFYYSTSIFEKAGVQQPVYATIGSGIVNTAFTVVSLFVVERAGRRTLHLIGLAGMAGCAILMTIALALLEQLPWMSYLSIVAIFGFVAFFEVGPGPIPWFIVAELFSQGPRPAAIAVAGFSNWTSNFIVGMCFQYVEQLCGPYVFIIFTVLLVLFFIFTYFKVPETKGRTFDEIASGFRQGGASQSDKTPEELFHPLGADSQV
UniProt P78381: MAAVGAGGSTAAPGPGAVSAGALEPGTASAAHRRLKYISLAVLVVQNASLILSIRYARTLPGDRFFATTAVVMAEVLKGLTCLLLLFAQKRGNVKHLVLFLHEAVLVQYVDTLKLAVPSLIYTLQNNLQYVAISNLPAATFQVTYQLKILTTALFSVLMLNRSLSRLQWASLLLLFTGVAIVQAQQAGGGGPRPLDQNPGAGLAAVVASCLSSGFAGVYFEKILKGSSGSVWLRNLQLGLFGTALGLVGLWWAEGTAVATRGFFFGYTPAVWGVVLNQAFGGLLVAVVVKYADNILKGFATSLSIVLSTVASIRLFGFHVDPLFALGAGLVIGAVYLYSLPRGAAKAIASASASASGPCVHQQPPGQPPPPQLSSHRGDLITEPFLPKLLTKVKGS
UniProt Q6P1K1: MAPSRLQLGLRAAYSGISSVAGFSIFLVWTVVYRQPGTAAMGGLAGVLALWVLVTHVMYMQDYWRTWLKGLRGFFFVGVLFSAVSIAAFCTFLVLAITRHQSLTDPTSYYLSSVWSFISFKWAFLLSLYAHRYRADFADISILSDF
UniProt Q6XR72: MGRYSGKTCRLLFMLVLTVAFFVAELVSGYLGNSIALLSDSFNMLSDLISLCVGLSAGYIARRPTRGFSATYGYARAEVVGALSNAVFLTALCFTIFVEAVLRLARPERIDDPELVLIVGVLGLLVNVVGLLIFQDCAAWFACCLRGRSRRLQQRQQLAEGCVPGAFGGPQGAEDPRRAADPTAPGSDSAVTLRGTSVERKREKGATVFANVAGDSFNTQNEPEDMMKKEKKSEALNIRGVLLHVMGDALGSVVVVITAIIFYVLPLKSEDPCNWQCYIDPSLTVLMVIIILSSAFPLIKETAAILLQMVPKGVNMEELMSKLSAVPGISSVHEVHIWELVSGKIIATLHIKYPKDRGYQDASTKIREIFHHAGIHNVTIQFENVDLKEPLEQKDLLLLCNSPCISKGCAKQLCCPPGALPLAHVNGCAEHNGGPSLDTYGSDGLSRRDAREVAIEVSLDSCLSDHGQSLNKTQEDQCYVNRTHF
UniProt O15431: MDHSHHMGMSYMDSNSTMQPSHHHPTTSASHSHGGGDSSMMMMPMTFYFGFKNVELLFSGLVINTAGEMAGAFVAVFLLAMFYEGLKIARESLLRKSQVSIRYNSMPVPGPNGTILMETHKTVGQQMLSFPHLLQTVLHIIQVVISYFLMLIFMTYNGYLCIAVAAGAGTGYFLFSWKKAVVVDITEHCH
UniProt Q6ZP29: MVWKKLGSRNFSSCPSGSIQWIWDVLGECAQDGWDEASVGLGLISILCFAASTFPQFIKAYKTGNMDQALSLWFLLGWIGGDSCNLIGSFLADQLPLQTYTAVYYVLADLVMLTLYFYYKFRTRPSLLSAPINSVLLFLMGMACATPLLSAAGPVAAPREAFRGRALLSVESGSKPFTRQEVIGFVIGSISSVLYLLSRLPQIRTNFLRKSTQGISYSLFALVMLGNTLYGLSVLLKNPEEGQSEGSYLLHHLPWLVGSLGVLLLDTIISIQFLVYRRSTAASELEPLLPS
UniProt Q5BKX6: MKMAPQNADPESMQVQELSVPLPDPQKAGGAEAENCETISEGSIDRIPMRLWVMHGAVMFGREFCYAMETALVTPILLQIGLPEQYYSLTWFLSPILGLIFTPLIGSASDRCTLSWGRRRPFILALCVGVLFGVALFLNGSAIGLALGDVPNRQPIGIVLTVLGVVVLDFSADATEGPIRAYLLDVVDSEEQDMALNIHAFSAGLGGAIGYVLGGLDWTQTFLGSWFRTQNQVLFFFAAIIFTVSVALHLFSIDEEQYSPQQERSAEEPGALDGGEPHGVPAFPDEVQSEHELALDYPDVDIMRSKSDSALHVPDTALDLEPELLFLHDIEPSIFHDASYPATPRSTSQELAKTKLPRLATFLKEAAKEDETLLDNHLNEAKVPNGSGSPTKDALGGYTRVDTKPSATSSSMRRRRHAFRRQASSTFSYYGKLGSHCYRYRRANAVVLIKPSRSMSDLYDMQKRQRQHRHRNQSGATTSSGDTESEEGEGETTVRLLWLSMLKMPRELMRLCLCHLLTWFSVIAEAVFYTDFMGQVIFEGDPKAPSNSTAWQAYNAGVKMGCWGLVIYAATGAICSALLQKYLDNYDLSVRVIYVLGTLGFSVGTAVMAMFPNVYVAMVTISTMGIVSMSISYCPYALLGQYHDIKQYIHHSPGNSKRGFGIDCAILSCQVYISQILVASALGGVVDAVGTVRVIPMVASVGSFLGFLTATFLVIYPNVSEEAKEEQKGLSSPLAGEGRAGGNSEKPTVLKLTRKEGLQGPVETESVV
UniProt P48029: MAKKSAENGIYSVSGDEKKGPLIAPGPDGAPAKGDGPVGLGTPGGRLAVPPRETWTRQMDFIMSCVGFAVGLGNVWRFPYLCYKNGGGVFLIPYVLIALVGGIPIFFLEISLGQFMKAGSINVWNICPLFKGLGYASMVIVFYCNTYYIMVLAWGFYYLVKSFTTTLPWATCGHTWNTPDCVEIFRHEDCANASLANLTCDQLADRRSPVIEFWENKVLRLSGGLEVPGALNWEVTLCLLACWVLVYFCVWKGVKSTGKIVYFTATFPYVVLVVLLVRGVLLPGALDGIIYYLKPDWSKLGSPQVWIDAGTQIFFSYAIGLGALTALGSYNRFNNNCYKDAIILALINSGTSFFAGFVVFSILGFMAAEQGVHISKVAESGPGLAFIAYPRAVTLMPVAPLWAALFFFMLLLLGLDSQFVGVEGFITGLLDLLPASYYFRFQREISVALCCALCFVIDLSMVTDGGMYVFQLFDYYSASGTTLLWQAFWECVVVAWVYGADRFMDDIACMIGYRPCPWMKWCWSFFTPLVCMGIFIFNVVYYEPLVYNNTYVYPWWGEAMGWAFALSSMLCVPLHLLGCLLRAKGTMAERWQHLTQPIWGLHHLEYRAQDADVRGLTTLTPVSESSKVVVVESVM
UniProt Q969S0: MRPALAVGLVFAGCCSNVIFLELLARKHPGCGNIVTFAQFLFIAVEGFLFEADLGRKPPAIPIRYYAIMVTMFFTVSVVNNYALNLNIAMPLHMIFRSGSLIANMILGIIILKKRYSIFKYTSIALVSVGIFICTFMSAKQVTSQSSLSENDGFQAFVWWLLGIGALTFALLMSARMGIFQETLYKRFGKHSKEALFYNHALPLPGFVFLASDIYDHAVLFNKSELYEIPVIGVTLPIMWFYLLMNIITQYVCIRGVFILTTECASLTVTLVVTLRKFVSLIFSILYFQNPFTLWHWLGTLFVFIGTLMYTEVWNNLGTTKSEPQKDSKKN
UniProt Q6NXT4: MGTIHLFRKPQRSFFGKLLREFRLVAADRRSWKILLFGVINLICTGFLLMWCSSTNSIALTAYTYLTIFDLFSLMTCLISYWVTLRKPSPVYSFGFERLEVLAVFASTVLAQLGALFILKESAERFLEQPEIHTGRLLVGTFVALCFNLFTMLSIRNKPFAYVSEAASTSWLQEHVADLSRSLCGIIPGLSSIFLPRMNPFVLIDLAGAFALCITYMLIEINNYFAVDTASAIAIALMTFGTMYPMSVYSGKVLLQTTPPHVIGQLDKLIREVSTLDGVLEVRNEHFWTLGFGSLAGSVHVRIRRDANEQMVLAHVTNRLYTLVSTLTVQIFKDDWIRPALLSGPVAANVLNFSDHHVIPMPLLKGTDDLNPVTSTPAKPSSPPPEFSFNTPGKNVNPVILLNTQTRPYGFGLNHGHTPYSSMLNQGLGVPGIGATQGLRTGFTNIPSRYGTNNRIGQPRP
UniProt P53007, whole entry, looked up: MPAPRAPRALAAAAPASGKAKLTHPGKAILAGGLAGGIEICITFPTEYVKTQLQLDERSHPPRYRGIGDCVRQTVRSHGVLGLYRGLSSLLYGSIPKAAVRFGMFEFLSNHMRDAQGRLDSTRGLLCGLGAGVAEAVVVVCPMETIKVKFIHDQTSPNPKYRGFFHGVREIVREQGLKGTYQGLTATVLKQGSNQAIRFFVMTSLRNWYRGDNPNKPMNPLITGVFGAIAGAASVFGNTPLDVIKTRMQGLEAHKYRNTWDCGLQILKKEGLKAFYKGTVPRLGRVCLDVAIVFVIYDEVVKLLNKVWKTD
UniProt Q9BZJ4: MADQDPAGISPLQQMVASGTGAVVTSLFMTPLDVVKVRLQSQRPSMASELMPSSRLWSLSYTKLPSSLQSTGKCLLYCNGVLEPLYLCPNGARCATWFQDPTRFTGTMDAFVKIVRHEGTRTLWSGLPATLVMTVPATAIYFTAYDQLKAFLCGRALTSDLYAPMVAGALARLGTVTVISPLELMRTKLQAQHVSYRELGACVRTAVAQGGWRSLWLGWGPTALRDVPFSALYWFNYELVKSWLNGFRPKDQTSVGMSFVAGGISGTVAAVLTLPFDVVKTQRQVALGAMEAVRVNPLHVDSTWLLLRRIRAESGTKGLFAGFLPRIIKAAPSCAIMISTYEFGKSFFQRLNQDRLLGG
UniProt Q96CQ1: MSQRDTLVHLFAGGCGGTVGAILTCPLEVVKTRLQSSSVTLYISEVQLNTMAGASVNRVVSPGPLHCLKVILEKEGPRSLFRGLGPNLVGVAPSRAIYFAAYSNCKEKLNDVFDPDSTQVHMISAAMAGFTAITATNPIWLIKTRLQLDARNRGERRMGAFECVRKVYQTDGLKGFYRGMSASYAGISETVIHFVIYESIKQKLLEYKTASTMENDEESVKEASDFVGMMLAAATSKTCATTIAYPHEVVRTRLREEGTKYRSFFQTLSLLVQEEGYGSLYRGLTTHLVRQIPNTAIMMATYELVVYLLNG
UniProt Q3KQZ1: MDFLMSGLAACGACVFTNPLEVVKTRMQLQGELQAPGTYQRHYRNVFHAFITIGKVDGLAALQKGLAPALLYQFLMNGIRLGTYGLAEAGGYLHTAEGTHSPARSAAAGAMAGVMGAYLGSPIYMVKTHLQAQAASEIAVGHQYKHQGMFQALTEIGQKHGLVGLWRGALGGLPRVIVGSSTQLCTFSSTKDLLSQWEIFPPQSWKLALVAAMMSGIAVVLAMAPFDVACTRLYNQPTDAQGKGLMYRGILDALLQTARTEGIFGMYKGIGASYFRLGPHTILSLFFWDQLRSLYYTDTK

[1] = compound: CC(=O)c1cnc2ccc(-c3cc(Cl)c(O)c(Cl)c3)nc2c1N[C@H]1CC[C@H](CN(C)C)CC1
Summary of the method: as §1

ralimetinib = compound: CC(C)(C)Cn1c(N)nc2ccc(-c3[nH]c(C(C)(C)C)nc3-c3ccc(F)cc3)nc21 [ralimetinib]
Summary of the method: as §1

[2] = compound: CC(C)(O)CC(=O)NCCn1ccc2ncnc(Nc3ccc(Oc4cccc(C(F)(F)F)c4)c(Cl)c3)c21
Summary of the method: as §1

[3] = compound: CC(C)C1=C2N=C(C=C(N2N=C1)NCC3=CC=CC=C3)NCCCCCCN
Summary of the method: as §1

[4] = compound: CC1=C(C(CC(=O)N1)C2=CC=C(C=C2)C(F)(F)F)C(=O)NC3=C(C=C4C(=C3)C=NN4)F
Summary of the method: as §1

[5] = compound: CC1=C(C2=C(C=C1)C(=O)C3=CC=CC=C3N2CCCN)C
Summary of the method: as §1

[6] = compound: CC1=C(C=C(C=C1)NC(=O)C2=CC(=CC=C2)C(C)(C)C#N)NC3=CC4=C(C=C3)N=CN(C4=O)C
Summary of the method: as §1

[7] = compound: CC1=C(C=C(C=C1)NC(=O)C2=CC(=CC=C2)N(C)C)NC(=O)C3=CC=C(C=C3)O
Summary of the method: as §1

[8] = compound: CC1=CC=C(C=C1)SC2=C3C=C(SC3=CN=C2)C(=O)N
Summary of the method: as §1

Measured: log2 fold change

SLC25A12 (UniProt O75746)
inactive: ibrutinib -0.018 | [1] -0.007 | ralimetinib 0.006 | [2] -0.004 | [3] 0.002 | [4] -0.005 | [5] -0.004 | [6] -0.023 | [7] -0.015 | [8] 0.048

SLC36A4 (UniProt Q6YBV0)
inactive: ibrutinib 0.109 | [1] -0.088 | ralimetinib 0.101 | [2] -0.115 | [3] -0.115 | [4] -0.044 | [5] -0.067 | [6] 0.097 | [7] 0.049 | [8] 0.058

SLC35E1 (UniProt Q96K37)
inactive: ibrutinib 0.011 | [1] 0.04 | ralimetinib 0.051 | [2] -0.014 | [3] 0.053 | [5] 0.006 | [6] 0.064 | [7] -0.021 | [8] -0.03

SLC39A1 (UniProt Q9NY26)
inactive: ibrutinib -0.031 | [1] 0.169 | ralimetinib -0.007 | [2] 0.011 | [3] 0 | [5] 0.044 | [6] -0.026 | [7] 0.116 | [8] -0.103

SLC9A6 isoform 2 (UniProt Q92581)
inactive: ibrutinib 0.05 | [1] -0.002 | ralimetinib -0.005 | [2] 0.019 | [3] -0.06 | [5] -0.021 | [6] -0.021 | [7] 0.091 | [8] 0.008

SLC7A2 isoform 3 (UniProt P52569)
inactive: ibrutinib 0.022 | [1] -0.029 | ralimetinib 0.052 | [2] 0.032 | [3] -0.033 | [4] 0.031 | [5] -0.186 | [6] 0.049 | [7] -0.051 | [8] 0.007

SLC26A6 (UniProt Q9BXS9)
inactive: ibrutinib -0.242 | [1] 0.018 | ralimetinib 0.019 | [2] -0.056 | [3] -0.05 | [4] -0.157 | [5] -0.022 | [6] 0.017 | [7] 0.033 | [8] -0.056

SLC2A1 (UniProt P11166)
inactive: ibrutinib 0.041 | [1] 0.003 | ralimetinib 0.038 | [2] 0.005 | [3] -0.019 | [4] -0.023 | [5] 0.015 | [6] -0.006 | [7] 0.021 | [8] 0.01

SLC35F2 (UniProt Q8IXU6)
inactive: ibrutinib 0.005 | [1] -0.015 | ralimetinib -0.01 | [2] 0 | [3] -0.063 | [4] 0.033 | [5] 0.077 | [7] -0.032 | [8] 0.03

SLC66A2 (UniProt Q8N2U9)
inactive: ibrutinib -0.119 | [1] 0.006 | ralimetinib 0.015 | [2] -0.109 | [3] -0.262 | [4] 0.038 | [5] 0.042 | [7] 0.082 | [8] -0.063

SLC35A2 isoform 4 (UniProt P78381)
inactive: ibrutinib -0.049 | [1] 0 | ralimetinib -0.034 | [2] 0.057 | [3] -0.036 | [4] 0.068 | [5] -0.005 | [6] 0.072 | [7] 0.061 | [8] 0.047

SLC48A1 (UniProt Q6P1K1)
inactive: ibrutinib -0.143 | [1] 0 | ralimetinib -0.084 | [2] -0.014 | [3] 0.008 | [4] -0.205 | [5] 0.019 | [7] -0.042 | [8] -0.234

SLC52A2 (UniProt Q9HAB3)
inactive: ibrutinib 0.063 | [1] -0.053 | ralimetinib -0.023 | [2] -0.057 | [3] 0.014 | [5] -0.05 | [6] 0.016 | [7] -0.077 | [8] -0.168

SLC30A10 (UniProt Q6XR72)
inactive: ibrutinib 0.059 | [1] 0.015 | ralimetinib 0.05 | [2] 0 | [3] -0.098 | [4] 0.172 | [5] -0.047 | [6] 0.052 | [7] 0.01 | [8] -0.032

SLC31A1 (UniProt O15431)
inactive: ibrutinib -0.007 | [1] -0.086 | ralimetinib 0.016 | [2] -0.214 | [3] -0.048 | [4] -0.028 | [5] 0.121 | [6] 0.023 | [7] 0.015 | [8] -0.064

SLC25A42 (UniProt Q86VD7)
inactive: ibrutinib -0.094 | [1] 0.049 | ralimetinib 0.018 | [2] -0.027 | [3] 0.055 | [4] -0.017 | [5] -0.046 | [6] -0.003 | [7] 0.073 | [8] 0.01

SLC66A1 (UniProt Q6ZP29)
inactive: ibrutinib 0.231 | [1] 0.122 | ralimetinib -0.117 | [2] -0.075 | [3] -0.012 | [4] 0.016 | [6] 0.089 | [7] -0.052 | [8] 0.024

SLC45A4 isoform 3 (UniProt Q5BKX6)
inactive: ibrutinib 0.085 | [1] 0.014 | ralimetinib -0.04 | [2] -0.047 | [3] 0.014 | [4] 0.033 | [6] 0.064 | [7] -0.053 | [8] 0.031

SLC22A23 (UniProt A1A5C7)
inactive: ibrutinib 0.128 | [1] -0.062 | ralimetinib -0.053 | [2] -0.022 | [3] -0.038 | [5] -0.093 | [6] 0.058 | [7] 0.027 | [8] -0.081

SLC38A10 (UniProt Q9HBR0)
inactive: ibrutinib 0.103 | [1] -0.047 | ralimetinib -0.025 | [2] -0.056 | [3] -0.007 | [4] -0.051 | [5] -0.018 | [6] 0.032 | [7] -0.001 | [8] -0.027

SLC6A8 isoform 2 (UniProt P48029)
inactive: ibrutinib -0.044 | [1] -0.034 | ralimetinib 0.194 | [2] -0.127 | [3] -0.053 | [4] 0.126 | [5] -0.063 | [6] -0.012 | [7] 0.074 | [8] 0.038

SLC26A2 (UniProt P50443)
inactive: ibrutinib -0.284 | [1] -0.041 | ralimetinib 0.033 | [2] -0.1 | [3] -0.02 | [5] 0.028 | [6] 0.017 | [7] 0.102 | [8] -0.01

SLC35B4 (UniProt Q969S0)
inactive: ibrutinib 0.051 | [1] 0.065 | ralimetinib -0.033 | [2] -0.102 | [3] 0.009 | [4] -0.004 | [6] 0.139 | [7] 0.005 | [8] 0.047

SLC4A7 isoform 7 (UniProt Q9Y6M7)
inactive: ibrutinib 0.011 | [1] 0.019 | ralimetinib -0.009 | [2] -0.056 | [3] -0.006 | [4] -0.039 | [5] 0.002 | [6] 0.043 | [7] 0.013 | [8] 0.006

SLC30A6 isoform 2 (UniProt Q6NXT4)
inactive: ibrutinib 0.052 | [1] -0.019 | ralimetinib -0.013 | [2] -0.016 | [3] -0.023 | [4] 0.047 | [6] -0.022 | [7] 0.053 | [8] 0.011

SLC27A2 (UniProt O14975)
inactive: ibrutinib 0.243 | [1] -0.024 | ralimetinib -0.013 | [2] 0.245 | [3] 0.11 | [4] -0.041 | [5] -0.035 | [6] 0.069 | [7] -0.089 | [8] 0.031

SLC25A1 (UniProt P53007)
inactive: ibrutinib -0.028 | [1] -0.019 | ralimetinib 0.004 | [2] 0.008 | [3] 0.026 | [4] -0.011 | [5] -0.012 | [6] 0.01 | [7] 0.026 | [8] 0.025

SLC38A7 (UniProt Q9NVC3)
inactive: ibrutinib 0.041 | [1] -0.158 | [3] 0.085 | [4] 0.055 | [5] 0.052 | [6] 0.091 | [8] 0.057

SLC2A13 (UniProt Q96QE2)
inactive: [3] 0.046 | [5] -0.01

Reprinted from the results shown (3 entries):
SLC25A1 (UniProt P53007)
inactive: ibrutinib -0.028 | [1] -0.019 | ralimetinib 0.004 | [2] 0.008 | [3] 0.026 | [4] -0.011 | [5] -0.012 | [6] 0.01 | [7] 0.026 | [8] 0.025

SLC38A7 (UniProt Q9NVC3)
inactive: ibrutinib 0.041 | [1] -0.158 | [3] 0.085 | [4] 0.055 | [5] 0.052 | [6] 0.091 | [8] 0.057

SLC2A13 (UniProt Q96QE2)
inactive: [3] 0.046 | [5] -0.01

Next part

SLC25A39 (UniProt Q9BZJ4)
inactive: [3] -0.111 | [4] -0.123 | [5] -0.171

SLC3A2 (UniProt F5H867)
inactive: ibrutinib -0.06 | [1] 0.016 | [4] -0.039 | [8] -0.052

SLC25A36 (UniProt Q96CQ1)
inactive: [1] -0.012 | ralimetinib 0.142 | [2] -0.048 | [3] 0.1 | [4] 0.044 | [5] -0.16 | [6] 0.011 | [7] 0.027 | [8] 0.013

SLC25A35 (UniProt Q3KQZ1)
inactive: [6] 0.051
